The record followed here is publication PMC9280481.

Amino acid sequences for entries named in this document (tags omitted). A change or cut given only in a name is not applied to a line headed by its entry.
UniProt Q969H0: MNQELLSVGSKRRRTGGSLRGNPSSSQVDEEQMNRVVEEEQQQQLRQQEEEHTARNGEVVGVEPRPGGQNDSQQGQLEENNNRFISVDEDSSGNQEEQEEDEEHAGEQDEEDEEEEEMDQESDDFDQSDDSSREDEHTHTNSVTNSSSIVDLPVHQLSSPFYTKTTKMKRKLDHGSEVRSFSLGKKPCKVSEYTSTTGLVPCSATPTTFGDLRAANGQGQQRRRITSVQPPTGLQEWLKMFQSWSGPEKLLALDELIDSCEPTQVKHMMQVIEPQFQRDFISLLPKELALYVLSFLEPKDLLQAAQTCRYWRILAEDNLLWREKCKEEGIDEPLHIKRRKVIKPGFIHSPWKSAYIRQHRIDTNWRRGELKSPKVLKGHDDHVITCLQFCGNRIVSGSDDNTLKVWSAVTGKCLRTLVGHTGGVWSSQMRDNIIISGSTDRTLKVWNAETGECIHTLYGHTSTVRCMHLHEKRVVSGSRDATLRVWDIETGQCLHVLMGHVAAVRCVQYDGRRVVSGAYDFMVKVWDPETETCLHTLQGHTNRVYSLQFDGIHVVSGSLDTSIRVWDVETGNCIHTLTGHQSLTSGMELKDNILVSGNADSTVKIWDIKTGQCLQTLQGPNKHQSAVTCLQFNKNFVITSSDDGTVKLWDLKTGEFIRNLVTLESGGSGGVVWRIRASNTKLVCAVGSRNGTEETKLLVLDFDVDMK

For assay [1], the target named is T1, F-box protein 9 (FBXO9) (human (endogenous in HCC cells)) (UniProt Q9UK97).
T1 sequence: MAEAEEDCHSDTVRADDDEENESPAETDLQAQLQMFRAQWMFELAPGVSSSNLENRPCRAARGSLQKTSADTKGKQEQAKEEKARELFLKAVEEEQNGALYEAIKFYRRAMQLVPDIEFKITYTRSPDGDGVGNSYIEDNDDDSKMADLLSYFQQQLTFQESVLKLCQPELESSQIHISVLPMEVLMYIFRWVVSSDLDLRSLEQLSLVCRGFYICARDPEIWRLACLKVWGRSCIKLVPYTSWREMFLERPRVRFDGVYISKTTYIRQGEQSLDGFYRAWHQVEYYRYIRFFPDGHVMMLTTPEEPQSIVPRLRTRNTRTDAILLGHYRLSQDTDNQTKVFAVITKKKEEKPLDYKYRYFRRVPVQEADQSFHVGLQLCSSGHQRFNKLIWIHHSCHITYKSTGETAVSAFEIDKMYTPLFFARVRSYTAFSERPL
Kind of assay: co-IP; endogenous proteins in HCC cells; RIPA lysis buffer; lysates immunoprecipitated with antibodies (anti-FBXO9, anti-mTOR or anti-FBXW7) and protein A/G agarose beads overnight at 4°C; western blotting. On the technique in general: In western blotting, separated proteins are transferred to a membrane and probed.

Assay [2] deals with F-box and WD repeat domain containing 7 (FBXW7) (human (endogenous in HCC cells)) (UniProt Q969H0). The assay is described as above.

These are yes or no findings as the source states them, for the method shown. Binding seen in cells or lysates may run through a third protein. Some entries that bind do so weakly or less than the wild type.

In the case of “F-box and WD repeat domain containing 7 (FBXW7) (from UniProt Q969H0-1 1-707)”, in assay [1], the binding entry is listed as “binds”.

B1: F-box protein 9 (FBXO9) (protein, UniProt Q9UK97-2 1-437)
chain: T1 sequence
Consider B1, for which the binding result in assay [2] is recorded as “binds”.
